Laboratory results taken from PubChem BioAssay AID1259354 (Paczesny and Yang Labs, IUPUI and University of Michigan, 2018).
About 1,800 (2.3%) of roughly 78,000 compounds were called active. Inconclusive results, whose numbers are uncertain, are shown with a selection of clear calls. Rule as the data show it: active = inhibition above about 30%; inconclusive = mostly about 10% to 28%; inactive = weaker than that.

The chains behind the UniProt entries cited, without tags or fusion partners. Where a name states a change or a piece, a line headed by the entry shows the natural chain unless it says otherwise.
UniProt Q01638: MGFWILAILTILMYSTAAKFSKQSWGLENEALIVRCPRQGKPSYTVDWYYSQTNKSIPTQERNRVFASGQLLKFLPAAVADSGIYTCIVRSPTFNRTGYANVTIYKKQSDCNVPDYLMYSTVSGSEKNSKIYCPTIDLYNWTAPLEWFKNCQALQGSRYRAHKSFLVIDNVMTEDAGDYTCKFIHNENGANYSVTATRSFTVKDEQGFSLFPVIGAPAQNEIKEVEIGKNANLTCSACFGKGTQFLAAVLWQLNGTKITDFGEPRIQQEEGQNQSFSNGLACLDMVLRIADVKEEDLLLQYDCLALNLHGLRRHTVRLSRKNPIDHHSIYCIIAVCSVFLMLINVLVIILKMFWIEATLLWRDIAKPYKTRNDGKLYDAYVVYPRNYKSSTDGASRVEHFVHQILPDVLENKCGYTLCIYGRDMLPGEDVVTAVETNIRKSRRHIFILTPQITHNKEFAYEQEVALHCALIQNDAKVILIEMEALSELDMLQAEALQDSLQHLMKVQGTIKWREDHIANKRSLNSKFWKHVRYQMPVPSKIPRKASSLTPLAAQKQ

These molecules were tested against Interleukin-1 receptor-like 1 (Homo sapiens) (UniProt Q01638) (assay: blocks human ST2 binding to IL-33, primary screen, biochemical, AlphaLISA (AID 1259354)). Conditions: AlphaLISA ST2-Fc/biotin-IL-33 interaction, 1 h; at 17 µM, active compounds read high.
In the case of `Brc1cccc(-c2nnc3sc(CN4CCCCCC4)cn23)c1`, the inhibition is reported as inconclusive: 14%.
`O=c1c2c3c(sc2n(Cc2cc(=O)n4ccccc4n2)c(=O)n1Cc1ccccc1)CCCC3` was tested, and the inhibition was “inactive”.
`O=C(N[C@H]1CO[C@H]2[C@@H]1OC[C@@H]2Nc1nccc(C2CCCC2)n1)c1ccc(C(F)(F)F)cc1` was tested, and the inhibition was inconclusive: 10%.
In the case of `Cc1ccc(-c2cn[nH]c2C2CCCN(C(=O)c3ccco3)C2)cc1` (stereo not drawn), the inhibition is reported as “inactive”.
`CC(=O)c1ccc(NC(=O)c2ccc3nc(-c4ccco4)c(-c4ccco4)nc3c2)cc1` was tested, and the inhibition was active: 40%.
In the case of `O=C(c1ccco1)N1CCN(C(=O)c2cccn3c(=O)c4c5c(sc4nc23)CCCC5)CC1`, the inhibition is reported as “inactive”.
In the case of `N#Cc1ccc(Sc2nc3ccccc3o2)c([N+](=O)[O-])c1`, the inhibition is reported as inconclusive: 22%.
With `Cc1ccnc(SCCn2c(N3CCCC(C)C3)nc3c2c(=O)n(C)c(=O)n3C)n1` (stereo not drawn) the inhibition was inconclusive: 20%.
With `COc1ccc(Nc2cc(C)nc(N3CCN(S(=O)(=O)c4cc(C(C)(C)C)ccc4OC)CC3)n2)cc1` the inhibition was inconclusive: 18%.
In the case of `Clc1ccc(-c2nnc([C@H]3CCN(Cc4ccccc4Cl)C3)o2)cc1`, the inhibition is reported as “inactive”.
For `c1ccc(CNc2cc(-c3cnccn3)c3cc[nH]c3n2)nc1`, the inhibition was inconclusive: 23%.
With `O=C(Nc1ccc(S(=O)(=O)N2CCOCC2)cc1)C(Sc1ccccc1)c1ccccc1` (stereo not drawn) the inhibition was “inactive”.
`COc1cc(C(=O)ON=C2C=CC(=O)C=C2)cc(OC)c1OC` was tested, and the inhibition was inconclusive: 23%.
`Cc1c(C(C)NC(=O)c2cc(C(C)C)no2)cnn1-c1cccc2ccccc12` (stereo not drawn) was tested, and the inhibition was inconclusive: 16%.
`O=C(CCCn1cnc([N+](=O)[O-])n1)Nc1cccc(Cl)c1Cl` was tested, and the inhibition was inconclusive: 18%.
For `Cc1ccc(Nc2cc(C)nc(Nc3ccc(NC(=O)c4ccco4)cc3)n2)cc1`, the inhibition was “inactive”.
For `CC(=O)N1CC[C@@H](CC(=O)O)[C@@H](CCN2CCN(c3ccccc3)CC2)C1`, the inhibition was inconclusive: 15%.
For `O=C(C1CCCN(C2CCN(Cc3ccncc3)CC2)C1)N1CCCNCC1` (stereo not drawn), the inhibition was “inactive”.
With `Cc1cc(NC(=O)c2noc3c2CCCCC3)no1` the inhibition was inconclusive: 16%.
For `CCC(=O)Nc1ccc(NC(=O)c2cc3ccccc3o2)c(OC)c1`, the inhibition was inconclusive: 11%.
`CCOc1ccc(C2C(C(=O)Nc3cc(C)ccn3)=C(C)NC3=C2C(=O)CCC3)cc1` (stereo not drawn) was tested, and the inhibition was “inactive”.
With `O=[N+]([O-])c1cccnc1N1CCOCC1` the inhibition was “inactive”.
In the case of `Cc1cccc(N(CC(=O)Nc2cccc([N+](=O)[O-])c2)S(=O)(=O)c2ccccc2)c1C`, the inhibition is reported as inconclusive: 21%.
With `CCc1c(C)c(C#N)c2nc3ccccc3n2c1-n1ccnc1` the inhibition was inconclusive: 18%.
In the case of `COc1cccc(OC)c1C(=O)Nc1cccc(Cl)c1`, the inhibition is reported as “inactive”.
In the case of `CCOC(=O)Cn1c(=O)n(-c2ccc(C)c(C)c2)c2nc(-c3ccco3)nc(C(N)=O)c21`, the inhibition is reported as inconclusive: 10%.
With `COCC(NCC(=O)Nc1ccc(Cl)c(C)c1)c1ccnn1C` (stereo not drawn) the inhibition was inconclusive: 12%.
`CC(=O)[C@]1(O)Cc2c(O)c3c(c(O)c2[C@@H](O[C@H]2C[C@H](N)[C@H](O)[C@H](C)O2)C1)C(=O)c1ccccc1C3=O` was tested, and the inhibition was active: 34%.
For `CCCCc1cc(C[C@H]2CNCC[C@H]2CC(=O)N2CCN(c3ccccn3)CC2)no1`, the inhibition was inconclusive: 15%.
With `O=C(c1cccc(Cl)c1)C1CCCN(C(=O)/C=C/c2ccccc2F)C1` (stereo not drawn) the inhibition was inconclusive: 16%.
With `O=C(c1ccc2nc3ccccc3c(=O)n2c1)N1CCN(c2cccc(Cl)c2)CC1` the inhibition was “inactive”.
With `CCCN1CC(NC(=O)c2nc3ccccc3[nH]c2=O)CC1=O` (stereo not drawn) the inhibition was inconclusive: 13%.
With `CC(=O)c1cccc(NC(=O)c2cnc3n(c2=O)CCS3)c1` the inhibition was “inactive”.
For `O=[N+]([O-])c1ccc(NC(c2ccccn2)c2ccc3cccnc3c2O)cc1` (stereo not drawn), the inhibition was active: 31%.
In the case of `CC1CCN(C(=O)C[C@@H]2O[C@H](CNC(=O)NC(C)C)[C@@H](O)[C@H]2O)CC1`, the inhibition is reported as inconclusive: 13%.
With `COc1ccc(-c2cc(C(=O)NCC3(O)CCCNCC3)[nH]n2)cc1` (stereo not drawn) the inhibition was inconclusive: 12%.
`CCCc1nc2nc[nH]n2c(=O)c1NC(=O)NCc1cccc(OC)c1` was tested, and the inhibition was inconclusive: 11%.
With `COc1ccc(NS(=O)(=O)c2ccc3oc4ccccc4c3c2)cc1OC` the inhibition was inconclusive: 15%.
With `N#Cc1ccc(Sc2nc3ccccc3[nH]2)cc1C#N` the inhibition was inconclusive: 12%.
For `COc1cccc(-c2cc(C(F)(F)F)nc(N3CCCC3)n2)c1`, the inhibition was “inactive”.
`Cc1cc(NCCCn2ccnc2)n2c(nc3ccccc32)c1C#N` was tested, and the inhibition was inconclusive: 14%.
In the case of `COc1ccc(C(O)(CCN2CCCCC2)C2CCCCC2)cc1` (stereo not drawn), the inhibition is reported as inconclusive: 16%.
For `Nc1cc(C(=O)O)c(N)cc1C(=O)O`, the inhibition was inconclusive: 14%.
In the case of `CC(O)C12c3ccccc3C(c3ccccc31)[C@H]1C(=O)N(c3cccc(Br)c3)C(=O)C12` (stereo partly drawn), the inhibition is reported as inconclusive: 12%.
`COc1ccc(Br)cc1C1C(C(=O)OC2CCCCC2)=C(C)Nc2nnnn21` (stereo not drawn) was tested, and the inhibition was “inactive”.
In the case of `CN1C(=O)/C(=C2\SC(=Nc3ccc(F)cc3)NC2=O)c2cc(Br)ccc21`, the inhibition is reported as inconclusive: 11%.
For `Cc1cc(Cl)ccc1S(=O)(=O)n1cnc2ccccc21`, the inhibition was “inactive”.
For `C=CCNCCCOc1ccc(Cl)c(Cl)c1`, the inhibition was “inactive”.
With `CSc1ccc(-c2nc(CSCC(=O)NCCc3ccc(C)cc3)c(C)o2)cc1` the inhibition was inconclusive: 11%.
`O=c1/c(=C/c2cc(Br)ccc2F)sc2nc3ccccc3n12` was tested, and the inhibition was inconclusive: 18%.
With `COc1cccc(CN2CCCC3(CCN(Cc4cnc(C)nc4)C3)C2=O)c1` (stereo not drawn) the inhibition was inconclusive: 20%.
With `CC(C)CCCC(O)C1CC(CO)OC1=O` (stereo not drawn) the inhibition was “inactive”.
`CCCS(=O)(=O)N1CCC(C(=O)NC(C)CC)CC1` (stereo not drawn) was tested, and the inhibition was inconclusive: 10%.
For `COc1cc(/C=C2/C(=O)NN(c3ccc(Cl)c(Cl)c3)C2=O)cc([N+](=O)[O-])c1O`, the inhibition was inconclusive: 12%.
In the case of `CN(CC1Cc2ccccc2O1)C(=O)c1cn(Cc2ccccc2F)nn1` (stereo not drawn), the inhibition is reported as inconclusive: 11%.
In the case of `Cc1ccc(-c2csc(NC(=O)c3ccc(S(=O)(=O)N4CCCCC4)cc3)n2)o1`, the inhibition is reported as inconclusive: 18%.
`Oc1c(C=Nc2cccc(Cl)c2)[nH]c2ccc(Br)c(Cl)c12` was tested, and the inhibition was inconclusive: 22%.
`CCC1CCC(N2CCCN(C)CC2)CC1` (stereo not drawn) was tested, and the inhibition was inconclusive: 10%.
